Where a name gives a salt, the structure may show the parent alone. The list shows a part of the results. This is a noisy data set.
Each molecule was assayed on Peyronie's disease tunica albuginea primary fibroblasts (assay: inhibition of TGF-beta1-induced alpha-SMA expression (myofibroblast transformation), relative to TGF-beta1-only and untreated controls; higher = stronger inhibition of myofibroblast transformation). Conditions: 10 µM; TGF-beta1 10 ng/mL; 72 h.

Compound	inhibition of TGF-beta1-induced alpha-SMA expression [%]
CO/N=C(\C(=O)N[C@@H]1C(=O)N2C(C(=O)OC(C)OC(C)=O)=C(COC(N)=O)CS[C@H]12)c1ccco1 (some centres not stated) [Cefuroxime axetil]	-9.25
NC(=O)[C@@H]1CCCN1C(=O)[C@H](Cc1c[nH]cn1)NC(=O)[C@@H]1CCC(=O)N1 [Protirelin]	-35.2
CN(C)CC(c1ccc(O)cc1)C1(O)CCCCC1 (configuration not stated) [Desvenlafaxine Succinate]	-34.1
CN(C)CC(c1ccc(O)cc1)C1(O)CCCCC1 (configuration not stated) [Desvenlafaxine]	-22.8
O=C(C[S+]([O-])Cc1ccco1)NC/C=C\COc1cc(CN2CCCCC2)ccn1 (configuration not stated) [Lafutidine]	13.4
C#CCC(Cc1cnc2nc(N)nc(N)c2n1)c1ccc(C(=O)N[C@@H](CCC(=O)O)C(=O)O)cc1 (some centres not stated) [Pralatrexate]	3.47
O=C(c1ccccc1)c1ccc2n1CCC2C(=O)O (configuration not stated) [Ketorolac]	22.8
COc1c(N2CCNC(C)C2)c(F)cc2c(=O)c(C(=O)O)cn(C3CC3)c12 (configuration not stated) [Gatifloxacin]	-12.6
CN(C)C/C=C/C(=O)Nc1cc2c(Nc3ccc(F)c(Cl)c3)ncnc2cc1O[C@H]1CCOC1 [Afatinib (BIBW2992)]	98.9
CN(C)C/C=C/C(=O)Nc1cc2c(Nc3ccc(F)c(Cl)c3)ncnc2cc1O[C@H]1CCOC1 [Afatinib (BIBW2992) Dimaleate]	> 100
CCN[C@@H]1C[C@H](N)[C@@H](O[C@H]2OC(CN)=CC[C@H]2N)[C@H](O)[C@H]1O[C@H]1OC[C@](C)(O)[C@H](NC)[C@H]1O [Netilmicin Sulfate]	3.96
CC(C)(O)c1ccccc1CC[C@@H](SCC1(CC(=O)O)CC1)c1cccc(/C=C/c2ccc3ccc(Cl)cc3n2)c1 [Montelukast Sodium]	-16.5
O=C1NC(=O)C(c2ccccc2)(c2ccccc2)N1 [Phenytoin]	15.6
CC(=O)OCC[N+](C)(C)C [Acetylcholine iodide]	16.5
OCCN1C[C@H](O)[C@@H](O)[C@H](O)[C@H]1CO [Miglitol]	18.7
S=C(NCc1ccc2c(c1)OCO2)N1CCN(c2ncnc3c2oc2ccccc23)CC1 [Amuvatinib (MP-470)]	0.0874
Cn1cnc([N+](=O)[O-])c1Sc1ncnc2[nH]cnc12 [Azathioprine]	1.42
CC(=O)Oc1cc2c(s1)CCN(C(C(=O)C1CC1)c1ccccc1F)C2 (configuration not stated) [Prasugrel]	44.5
CC(=O)Oc1cc2c(s1)CCN(C(C(=O)C1CC1)c1ccccc1F)C2 (configuration not stated) [Prasugrel Hydrochloride]	> 100
CC(C)C(=O)Nc1ccc([N+](=O)[O-])c(C(F)(F)F)c1 [Flutamide]	25
C#C[C@]1(O)CC[C@H]2[C@@H]3CCC4=CCCC[C@@H]4[C@H]3C(=C)C[C@@]21CC [Desogestrel]	49.9
CN1CCN(c2cc3c(cc2F)c(=O)c(C(=O)O)cn3-c2ccc(F)cc2)CC1 [Difloxacin HCl]	-4.09
O=C(O)CCCC[C@@H]1SC[C@@H]2NC(=O)N[C@@H]21 [Biotin (Vitamin B7)]	-7.36
COCC(=O)Nc1c(I)c(C(=O)NCC(O)CO)c(I)c(C(=O)N(C)CC(O)CO)c1I (configuration not stated) [Iopromide]	86.2

Compound	inhibition of TGF-beta1-induced alpha-SMA expression [%]
CCOC(=O)Nc1ccc(NCc2ccc(F)cc2)nc1N [Flupirtine maleate]	35.8
C[C@H](CCC(=O)O)[C@H]1CC[C@H]2[C@@H]3CC[C@@H]4C[C@H](O)CC[C@]4(C)[C@H]3CC[C@]12C [Lithocholic acid]	17.1
N[C@@H](CSCCCO)C(=O)O [Fudosteine]	17.4
CC(=O)SCC(Cc1ccccc1)C(=O)NCC(=O)OCc1ccccc1 (configuration not stated) [Racecadotril]	-2.59
COC(=O)C1=C(C)NC(C)=C(C(=O)OC(C)C)C1c1cccc2nonc12 (configuration not stated) [Isradipine]	-2.53
CCNC(=O)[C@@H]1CCCN1C(=O)[C@H](CCCN=C(N)N)NC(=O)[C@H](CC(C)C)NC(=O)[C@@H](C)NC(=O)[C@H](Cc1ccc(O)cc1)NC(=O)[C@H](CO)NC(=O)[C@H](Cc1c[nH]c2ccccc12)NC(=O)[C@H](Cc1cnc[nH]1)NC(=O)[C@@H]1CCC(=O)N1 [Alarelin Acetate]	14.9
CCOC(=O)[C@H](CCc1ccccc1)N[C@@H](C)C(=O)N1Cc2cc(OC)c(OC)cc2C[C@H]1C(=O)O [Moexipril HCl]	14.9
CN1CCC(OC(c2ccccc2)c2ccccc2)CC1 [Diphenylpyraline HCl]	25.9
O=c1[nH]cnc2[nH]ncc12 [Allopurinol Sodium]	17
C[N+](C)(C)CCO.[Cl-] [Choline Chloride]	-20.9
C/C=C1\[C@H]2C=C(C)C[C@]1(N)c1ccc(=O)[nH]c1C2 [(-)-Huperzine A (HupA)]	10.7
Clc1ccc(Nc2nnc(Cc3ccncc3)c3ccccc23)cc1 [Vatalanib (PTK787) 2HCl]	-53
O=c1[nH]cnc2c1ncn2[C@H]1CC[C@@H](CO)O1 [Didanosine]	40
CN(C/C=C/C#CC(C)(C)C)Cc1cccc2ccccc12 [Terbinafine HCl]	22.1
CN(C/C=C/C#CC(C)(C)C)Cc1cccc2ccccc12 [Terbinafine]	17.5
Nc1nc(O)c2ncn(CCC(CO)CO)c2n1 [Penciclovir]	-23.9
Fc1ccc([C@@H]2CCNC[C@H]2COc2ccc3c(c2)OCO3)cc1 [Paroxetine HCl]	31.8
Fc1ccc([C@@H]2CCNC[C@H]2COc2ccc3c(c2)OCO3)cc1 [Paroxetine mesylate]	57.6
CN(C)CCCN1c2ccccc2CCc2ccccc21 [Imipramine HCl]	74.9
C[C@H]1COc2c(N3CCN(C)CC3)c(F)cc3c(=O)c(C(=O)O)cn1c23 [Levofloxacin hydrate]	2.46
C[C@H]1COc2c(N3CCN(C)CC3)c(F)cc3c(=O)c(C(=O)O)cn1c23 [Levofloxacin]	-5.11
NC(CO)C(=O)NNCc1ccc(O)c(O)c1O (configuration not stated) [Benserazide HCl]	18.7
CCCC(=O)OCOC(=O)C1=C(C)NC(C)=C(C(=O)OC)C1c1cccc(Cl)c1Cl (configuration not stated) [Clevidipine Butyrate]	13.8

Quoted from the listing:
In inhibition of TGF-beta1-induced alpha-SMA expression [%], Nc1nc(O)c2ncn(CCC(CO)CO)c2n1 [Penciclovir] is entered as -23.9
In inhibition of TGF-beta1-induced alpha-SMA expression [%], CN(C/C=C/C#CC(C)(C)C)Cc1cccc2ccccc12 [Terbinafine] is entered as 17.5
In inhibition of TGF-beta1-induced alpha-SMA expression [%], CCCC(=O)OCOC(=O)C1=C(C)NC(C)=C(C(=O)OC)C1c1cccc(Cl)c1Cl (configuration not stated) [Clevidipine Butyrate] is entered as 13.8

From the supplement of paper PMC9744312
